Experimental data from the supplement of paper PMC10849652.
This is one part of the list.

Amino acid sequences for entries named in this document (tags omitted). A change or cut given only in a name is not applied to a line headed by its entry.
UniProt P62834: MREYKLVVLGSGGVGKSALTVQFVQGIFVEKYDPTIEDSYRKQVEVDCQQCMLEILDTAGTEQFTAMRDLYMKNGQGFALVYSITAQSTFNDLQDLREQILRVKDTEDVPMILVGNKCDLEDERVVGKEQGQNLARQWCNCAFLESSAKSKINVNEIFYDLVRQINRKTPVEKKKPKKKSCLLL
UniProt Q9BTL3: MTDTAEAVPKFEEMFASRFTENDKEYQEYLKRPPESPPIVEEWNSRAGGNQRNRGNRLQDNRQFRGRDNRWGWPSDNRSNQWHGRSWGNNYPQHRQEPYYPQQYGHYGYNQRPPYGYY
UniProt P61018: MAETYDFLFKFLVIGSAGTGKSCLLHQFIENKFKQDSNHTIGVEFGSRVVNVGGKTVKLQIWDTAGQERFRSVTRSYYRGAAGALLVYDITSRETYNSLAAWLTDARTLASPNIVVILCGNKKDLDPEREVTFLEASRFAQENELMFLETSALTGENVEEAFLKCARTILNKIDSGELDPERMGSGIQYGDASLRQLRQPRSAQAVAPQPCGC
UniProt P20336: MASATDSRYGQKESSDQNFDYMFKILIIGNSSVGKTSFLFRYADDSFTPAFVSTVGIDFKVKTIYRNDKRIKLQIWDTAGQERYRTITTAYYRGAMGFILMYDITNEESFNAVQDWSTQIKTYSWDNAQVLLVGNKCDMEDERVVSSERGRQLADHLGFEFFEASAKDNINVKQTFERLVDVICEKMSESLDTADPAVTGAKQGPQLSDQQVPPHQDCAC
UniProt Q99638: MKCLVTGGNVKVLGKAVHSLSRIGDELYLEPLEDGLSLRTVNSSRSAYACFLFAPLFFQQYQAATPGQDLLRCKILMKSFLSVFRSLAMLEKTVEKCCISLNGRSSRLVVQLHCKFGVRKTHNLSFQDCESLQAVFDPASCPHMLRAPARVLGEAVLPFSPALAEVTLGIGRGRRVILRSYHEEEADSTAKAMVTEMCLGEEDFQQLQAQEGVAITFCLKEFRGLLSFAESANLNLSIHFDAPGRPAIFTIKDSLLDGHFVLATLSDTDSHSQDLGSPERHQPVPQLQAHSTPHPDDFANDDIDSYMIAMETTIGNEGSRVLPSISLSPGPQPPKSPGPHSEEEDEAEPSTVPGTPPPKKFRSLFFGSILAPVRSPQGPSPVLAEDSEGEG
UniProt P61006: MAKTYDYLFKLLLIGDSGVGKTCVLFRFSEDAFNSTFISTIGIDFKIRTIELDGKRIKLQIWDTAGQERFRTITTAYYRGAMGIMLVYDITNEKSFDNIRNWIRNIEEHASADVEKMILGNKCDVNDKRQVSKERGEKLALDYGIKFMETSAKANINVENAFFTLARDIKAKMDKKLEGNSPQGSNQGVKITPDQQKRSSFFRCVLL
UniProt P20936: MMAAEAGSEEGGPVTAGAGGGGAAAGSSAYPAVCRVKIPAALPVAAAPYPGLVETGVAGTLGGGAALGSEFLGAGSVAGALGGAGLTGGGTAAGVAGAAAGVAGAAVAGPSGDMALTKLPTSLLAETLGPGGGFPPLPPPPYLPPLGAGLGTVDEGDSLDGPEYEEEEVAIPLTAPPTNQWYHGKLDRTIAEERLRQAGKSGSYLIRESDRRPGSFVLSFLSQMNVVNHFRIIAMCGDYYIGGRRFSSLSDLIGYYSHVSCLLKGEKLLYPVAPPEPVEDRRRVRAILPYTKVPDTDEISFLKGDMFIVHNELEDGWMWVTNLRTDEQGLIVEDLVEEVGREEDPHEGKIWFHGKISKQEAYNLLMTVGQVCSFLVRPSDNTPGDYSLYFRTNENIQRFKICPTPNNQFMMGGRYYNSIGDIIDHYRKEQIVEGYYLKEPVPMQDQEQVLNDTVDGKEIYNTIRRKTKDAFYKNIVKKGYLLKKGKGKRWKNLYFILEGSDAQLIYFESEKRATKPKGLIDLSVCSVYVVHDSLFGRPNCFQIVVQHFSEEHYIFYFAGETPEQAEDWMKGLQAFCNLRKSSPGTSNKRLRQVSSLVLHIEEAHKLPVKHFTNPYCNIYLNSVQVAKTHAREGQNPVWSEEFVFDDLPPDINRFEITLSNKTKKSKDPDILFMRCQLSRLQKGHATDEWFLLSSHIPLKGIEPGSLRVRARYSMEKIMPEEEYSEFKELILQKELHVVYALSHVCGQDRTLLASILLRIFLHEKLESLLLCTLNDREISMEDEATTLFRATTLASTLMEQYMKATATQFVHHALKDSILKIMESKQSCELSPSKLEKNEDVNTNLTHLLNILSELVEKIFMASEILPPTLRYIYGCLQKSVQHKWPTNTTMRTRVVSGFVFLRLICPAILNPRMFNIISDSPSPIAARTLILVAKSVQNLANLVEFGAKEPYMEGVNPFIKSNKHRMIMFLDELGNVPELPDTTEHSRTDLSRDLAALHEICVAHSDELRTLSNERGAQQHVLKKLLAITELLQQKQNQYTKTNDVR
UniProt P78406: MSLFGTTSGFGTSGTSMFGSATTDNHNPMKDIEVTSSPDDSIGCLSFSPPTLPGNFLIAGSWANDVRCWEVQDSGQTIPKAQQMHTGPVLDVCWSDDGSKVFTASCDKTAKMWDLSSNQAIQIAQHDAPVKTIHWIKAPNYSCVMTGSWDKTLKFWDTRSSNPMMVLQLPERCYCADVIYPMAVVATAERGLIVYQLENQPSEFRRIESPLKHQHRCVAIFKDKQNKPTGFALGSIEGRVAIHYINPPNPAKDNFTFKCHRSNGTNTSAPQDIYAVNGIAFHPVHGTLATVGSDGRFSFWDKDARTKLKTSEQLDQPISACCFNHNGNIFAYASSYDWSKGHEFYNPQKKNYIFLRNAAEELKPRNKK
UniProt P20338: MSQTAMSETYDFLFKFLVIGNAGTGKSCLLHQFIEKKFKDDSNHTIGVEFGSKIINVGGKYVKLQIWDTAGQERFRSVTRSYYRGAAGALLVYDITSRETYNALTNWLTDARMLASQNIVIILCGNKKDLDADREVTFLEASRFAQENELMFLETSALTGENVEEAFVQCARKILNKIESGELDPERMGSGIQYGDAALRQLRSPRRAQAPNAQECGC
UniProt Q15907: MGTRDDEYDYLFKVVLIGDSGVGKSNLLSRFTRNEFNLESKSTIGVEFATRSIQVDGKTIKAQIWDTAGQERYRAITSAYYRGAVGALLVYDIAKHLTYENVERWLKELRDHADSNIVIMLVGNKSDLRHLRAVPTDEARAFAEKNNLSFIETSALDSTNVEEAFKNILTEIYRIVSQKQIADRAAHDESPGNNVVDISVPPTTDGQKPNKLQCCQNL
UniProt P51153: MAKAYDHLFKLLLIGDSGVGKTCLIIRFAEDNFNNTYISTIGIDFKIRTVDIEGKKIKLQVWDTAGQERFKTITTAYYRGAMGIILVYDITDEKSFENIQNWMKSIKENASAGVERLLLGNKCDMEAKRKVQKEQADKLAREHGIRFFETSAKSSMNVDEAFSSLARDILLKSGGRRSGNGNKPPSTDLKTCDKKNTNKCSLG
UniProt P61019: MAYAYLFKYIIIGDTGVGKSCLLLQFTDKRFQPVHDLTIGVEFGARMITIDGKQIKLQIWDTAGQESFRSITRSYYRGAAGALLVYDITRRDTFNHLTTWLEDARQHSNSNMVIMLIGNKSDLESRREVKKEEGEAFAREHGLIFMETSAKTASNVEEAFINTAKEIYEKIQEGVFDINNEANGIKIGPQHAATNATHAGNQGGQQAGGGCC
UniProt P98175: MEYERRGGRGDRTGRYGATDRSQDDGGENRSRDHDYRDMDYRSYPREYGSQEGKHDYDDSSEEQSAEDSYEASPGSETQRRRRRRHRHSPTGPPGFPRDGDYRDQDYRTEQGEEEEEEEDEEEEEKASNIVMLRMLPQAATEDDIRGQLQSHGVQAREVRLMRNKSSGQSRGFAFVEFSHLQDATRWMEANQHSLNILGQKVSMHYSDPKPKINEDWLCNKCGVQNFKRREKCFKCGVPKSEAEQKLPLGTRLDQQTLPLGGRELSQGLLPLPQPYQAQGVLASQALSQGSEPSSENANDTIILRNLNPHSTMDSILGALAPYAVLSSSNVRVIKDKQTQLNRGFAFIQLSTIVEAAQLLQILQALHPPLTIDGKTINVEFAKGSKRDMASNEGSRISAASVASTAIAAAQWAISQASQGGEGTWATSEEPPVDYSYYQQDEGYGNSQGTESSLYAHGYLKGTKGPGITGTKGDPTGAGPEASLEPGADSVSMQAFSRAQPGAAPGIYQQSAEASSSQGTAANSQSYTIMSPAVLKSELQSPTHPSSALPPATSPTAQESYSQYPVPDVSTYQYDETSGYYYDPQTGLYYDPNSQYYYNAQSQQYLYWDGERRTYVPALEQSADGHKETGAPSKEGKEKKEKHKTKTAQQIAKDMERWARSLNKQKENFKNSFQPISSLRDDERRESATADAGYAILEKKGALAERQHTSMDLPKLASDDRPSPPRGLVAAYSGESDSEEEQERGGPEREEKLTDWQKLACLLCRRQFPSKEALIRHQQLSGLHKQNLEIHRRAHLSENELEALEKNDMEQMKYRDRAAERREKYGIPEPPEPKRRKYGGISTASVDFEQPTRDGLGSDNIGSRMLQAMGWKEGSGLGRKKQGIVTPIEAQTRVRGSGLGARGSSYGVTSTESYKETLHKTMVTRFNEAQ
UniProt Q15276: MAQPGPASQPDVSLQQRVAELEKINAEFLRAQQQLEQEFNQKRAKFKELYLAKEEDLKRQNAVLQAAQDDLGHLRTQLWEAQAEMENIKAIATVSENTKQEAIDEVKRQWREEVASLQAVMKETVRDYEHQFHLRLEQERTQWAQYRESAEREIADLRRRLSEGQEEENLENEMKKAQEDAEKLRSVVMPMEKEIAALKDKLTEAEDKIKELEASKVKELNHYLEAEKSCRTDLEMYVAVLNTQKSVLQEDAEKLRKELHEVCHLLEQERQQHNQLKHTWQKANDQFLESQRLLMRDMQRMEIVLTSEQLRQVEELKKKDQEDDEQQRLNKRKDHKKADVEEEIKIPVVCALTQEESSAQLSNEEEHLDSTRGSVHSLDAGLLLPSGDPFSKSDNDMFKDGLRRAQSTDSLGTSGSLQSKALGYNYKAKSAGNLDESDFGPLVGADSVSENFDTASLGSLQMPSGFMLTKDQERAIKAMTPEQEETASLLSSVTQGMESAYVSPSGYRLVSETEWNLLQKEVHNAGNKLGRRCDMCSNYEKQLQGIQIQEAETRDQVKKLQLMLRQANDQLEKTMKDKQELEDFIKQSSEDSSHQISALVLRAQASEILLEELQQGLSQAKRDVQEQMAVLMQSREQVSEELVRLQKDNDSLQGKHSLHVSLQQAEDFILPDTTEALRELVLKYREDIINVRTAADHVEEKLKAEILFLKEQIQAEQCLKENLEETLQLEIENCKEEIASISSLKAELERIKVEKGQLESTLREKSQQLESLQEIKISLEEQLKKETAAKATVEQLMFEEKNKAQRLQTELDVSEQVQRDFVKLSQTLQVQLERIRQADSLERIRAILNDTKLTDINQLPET
UniProt P46060: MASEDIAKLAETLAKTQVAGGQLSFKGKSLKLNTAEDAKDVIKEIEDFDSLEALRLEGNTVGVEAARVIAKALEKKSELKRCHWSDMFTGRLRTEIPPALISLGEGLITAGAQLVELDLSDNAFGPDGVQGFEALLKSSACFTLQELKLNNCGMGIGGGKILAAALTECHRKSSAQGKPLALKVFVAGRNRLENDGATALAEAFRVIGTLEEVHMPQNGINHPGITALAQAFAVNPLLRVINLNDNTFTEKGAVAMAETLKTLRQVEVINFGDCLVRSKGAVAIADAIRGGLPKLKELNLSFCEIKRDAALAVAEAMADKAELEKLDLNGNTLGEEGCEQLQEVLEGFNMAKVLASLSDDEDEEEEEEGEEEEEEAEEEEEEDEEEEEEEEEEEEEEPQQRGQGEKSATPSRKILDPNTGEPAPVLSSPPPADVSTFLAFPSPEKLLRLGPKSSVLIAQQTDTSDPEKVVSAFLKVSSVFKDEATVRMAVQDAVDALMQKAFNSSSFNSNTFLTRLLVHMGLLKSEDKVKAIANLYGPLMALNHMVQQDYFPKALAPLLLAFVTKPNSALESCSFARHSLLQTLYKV
UniProt O00194: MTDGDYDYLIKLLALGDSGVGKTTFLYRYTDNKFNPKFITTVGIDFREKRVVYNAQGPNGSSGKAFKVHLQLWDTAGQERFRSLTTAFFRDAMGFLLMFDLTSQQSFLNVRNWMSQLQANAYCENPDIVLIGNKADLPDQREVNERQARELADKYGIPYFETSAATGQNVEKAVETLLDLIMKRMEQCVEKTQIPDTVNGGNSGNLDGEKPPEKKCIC
UniProt P51159: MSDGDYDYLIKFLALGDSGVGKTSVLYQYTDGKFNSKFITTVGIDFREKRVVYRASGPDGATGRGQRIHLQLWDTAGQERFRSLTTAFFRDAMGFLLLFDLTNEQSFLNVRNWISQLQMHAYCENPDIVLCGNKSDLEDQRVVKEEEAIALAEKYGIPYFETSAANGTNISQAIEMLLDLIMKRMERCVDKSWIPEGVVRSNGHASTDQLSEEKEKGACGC
UniProt P10114: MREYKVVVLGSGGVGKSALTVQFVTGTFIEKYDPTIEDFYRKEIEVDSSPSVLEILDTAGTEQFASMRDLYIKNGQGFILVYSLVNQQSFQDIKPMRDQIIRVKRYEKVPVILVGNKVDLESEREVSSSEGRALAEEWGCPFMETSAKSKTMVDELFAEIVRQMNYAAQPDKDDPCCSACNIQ

Key:
Experiment in all cases: log2 fold change, soluble protein after heating vs DMSO (PISA); higher = thermal stabilisation; K562 cells, 10 uM, 30 min; active = over 0.2 and 3.5 SD of the protein, either way, in both replicates (recomputed)
saracatinib = compound: CN1CCN(CCOc2cc(OC3CCOCC3)c3c(Nc4c(Cl)ccc5c4OCO5)ncnc3c2)CC1 [saracatinib]
How it was run: (§1)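 Soluble protein was defined as the supernatant after 21,000xg for 90 min. It came from K562 cells at 2×10^6 cells/mL given 10 μM compound for 30 min, heated in aliquots for 3 min across 48°C-58°C, pooled, and extracted in PBS with 0.5% NP-40 at 4°C, and was quantified by TMTpro 16plex LC-MS/MS with equalised channel sums. Thermal stability against control samples, from duplicates, is reported as log2 fold change.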

sotrastaurin = compound: CN1CCN(c2nc(C3=C(c4c[nH]c5ccccc45)C(=O)NC3=O)c3ccccc3n2)CC1 [sotrastaurin]
How it was run: as §1

alvocidib = compound: CN1CC[C@H](c2c(O)cc(O)c3c(=O)cc(-c4ccccc4Cl)oc23)[C@H](O)C1 [alvocidib]
How it was run: as §1

Tubastatin A = compound: CN1CCc2c(c3ccccc3n2Cc2ccc(C(=O)NO)cc2)C1 [Tubastatin A]
How it was run: as §1

[1] = compound: CNC(=O)C1=CC=CC=C1NC2=NC(=NC=C2Cl)NC3=C(C=C(C=C3)N4CCOCC4)OC
How it was run: as §1

defactinib = compound: CNC(=O)c1ccc(Nc2ncc(C(F)(F)F)c(NCc3nccnc3N(C)S(C)(=O)=O)n2)cc1 [defactinib]
How it was run: as §1

rucaparib = compound: CNCc1ccc(-c2[nH]c3cc(F)cc4c3c2CCNC4=O)cc1 [rucaparib]
How it was run: as §1

[2] = compound: CNc1nc(-c2ccc3c(N)n[nH]c3c2)cc(N2C[C@@H](C(=O)NC3CCCCC3)CC[C@H]2C)n1
How it was run: as §1

encorafenib = compound: COC(=O)N[C@@H](C)CNc1nccc(-c2cn(C(C)C)nc2-c2cc(Cl)cc(NS(C)(=O)=O)c2F)n1 [encorafenib]
How it was run: as §1

[3] = compound: COC(=O)[C@H](CCSC)NC(=O)C1=C(C=C(C=C1)NC[C@H](CS)N)C2=CC=CC=C2
How it was run: as §1

Measured: log2 fold change

RAB10 (UniProt P61026)
inactive: saracatinib 0.026 | sotrastaurin 0.037 | alvocidib -0.005 | Tubastatin A -0.02 | [1] -0.012 | defactinib -0.007 | rucaparib -0.034 | [2] -0.026 | encorafenib -0.002 | [3] -0.006

RAD23A (UniProt P54725)
inactive: saracatinib 0.004 | sotrastaurin 0.071 | alvocidib 0.017 | Tubastatin A -0.017 | [1] -0.027 | defactinib 0 | rucaparib -0.041 | [2] -0.027 | encorafenib -0.021 | [3] 0.056

RAP1A (UniProt P62834)
inactive: saracatinib 0.037 | sotrastaurin 0.061 | alvocidib -0.037 | Tubastatin A 0.007 | [1] 0.025 | defactinib -0.017 | rucaparib -0.068 | [2] 0.003 | encorafenib -0.02 | [3] -0.028

RAMAC (UniProt Q9BTL3)
inactive: saracatinib -0.008 | sotrastaurin 0.016 | alvocidib 0.115 | Tubastatin A -0.007 | [1] 0.019 | defactinib 0.052 | rucaparib 0.138 | [2] -0.058 | encorafenib -0.018 | [3] -0.071

RAB4B isoform 2 (UniProt P61018)
inactive: saracatinib 0.013 | sotrastaurin 0.06 | alvocidib -0.009 | Tubastatin A -0.002 | [1] -0.014 | defactinib -0.037 | rucaparib -0.022 | [2] -0.037 | encorafenib -0.024 | [3] 0.012

RAB3A (UniProt P20336)
inactive: saracatinib -0.007 | sotrastaurin -0.045 | alvocidib 0.021 | Tubastatin A -0.039 | [1] 0.004 | defactinib 0.017 | rucaparib -0.014 | [2] -0.184 | encorafenib -0.047 | [3] -0.005

RAD9A (UniProt Q99638)
inactive: saracatinib 0.082 | sotrastaurin 0.024 | alvocidib -0.024 | Tubastatin A -0.046 | [1] -0.038 | defactinib 0.004 | rucaparib 0.046 | [2] -0.056 | encorafenib -0.005 | [3] -0.022

RAB8A isoform 2 (UniProt P61006)
inactive: saracatinib 0.024 | sotrastaurin 0.038 | alvocidib 0.003 | Tubastatin A -0.066 | [1] 0.012 | defactinib 0.016 | rucaparib -0.052 | [2] -0.031 | encorafenib 0.012 | [3] -0.009

RASA1 (UniProt P20936)
inactive: saracatinib 0.165 | sotrastaurin -0.041 | alvocidib 0.043 | Tubastatin A -0.025 | [1] 0.062 | defactinib -0.049 | rucaparib -0.334 | [2] 0.003 | encorafenib 0.386 | [3] 0.031

RAE1 (UniProt P78406)
inactive: saracatinib -0.051 | sotrastaurin 0 | alvocidib -0.056 | Tubastatin A -0.011 | [1] 0.052 | defactinib -0.012 | rucaparib 0.102 | [2] 0.201 | encorafenib 0.072 | [3] -0.046

RAB4A (UniProt P20338)
inactive: saracatinib 0.068 | sotrastaurin 0.038 | alvocidib -0.014 | Tubastatin A -0.029 | [1] 0.004 | defactinib -0.034 | rucaparib 0.027 | [2] -0.016 | encorafenib -0.022 | [3] -0.003

RAB11B (UniProt Q15907)
inactive: saracatinib 0.049 | sotrastaurin 0.07 | alvocidib 0.081 | Tubastatin A -0.052 | [1] -0.006 | defactinib 0.01 | rucaparib -0.017 | [2] -0.05 | encorafenib -0.01 | [3] 0.084

RAB13 (UniProt P51153)
inactive: saracatinib 0.115 | sotrastaurin 0 | alvocidib -0.051 | Tubastatin A -0.104 | [1] 0.028 | defactinib -0.003 | rucaparib -0.068 | [2] 0.006 | encorafenib 0.039 | [3] 0.02

RAB20 (UniProt Q9NX57)
inactive: saracatinib 0.095 | sotrastaurin 0.144 | alvocidib -0.004 | Tubastatin A -0.027 | [1] 0.04 | defactinib -0.005 | rucaparib 0.035 | [2] -0.003 | encorafenib -0.028 | [3] 0.056

RAB2A (UniProt P61019)
inactive: saracatinib 0.03 | sotrastaurin 0.093 | alvocidib 0.062 | Tubastatin A -0.002 | [1] 0.004 | defactinib -0.023 | rucaparib -0.087 | [2] -0.015 | encorafenib -0.001 | [3] 0.006

RBM10 isoform 5 (UniProt P98175)
inactive: saracatinib -0.045 | sotrastaurin 0.014 | alvocidib 0.03 | Tubastatin A 0.081 | [1] -0.046 | defactinib 0.032 | rucaparib 0.135 | [2] -0.063 | encorafenib 0.055 | [3] -0.026

RAB2B (UniProt Q8WUD1)
inactive: saracatinib 0.074 | sotrastaurin 0.015 | alvocidib -0.02 | Tubastatin A -0.023 | [1] 0.029 | defactinib 0.012 | rucaparib -0.055 | [2] 0.003 | encorafenib 0.004 | [3] 0.024

RABEP1 (UniProt Q15276)
inactive: saracatinib 0.052 | sotrastaurin 0.019 | alvocidib -0.045 | Tubastatin A 0.023 | [1] -0.002 | defactinib -0.072 | rucaparib -0.007 | [2] 0.025 | encorafenib 0.032 | [3] -0.013

RAB8A (UniProt P61006)
inactive: saracatinib 0.006 | sotrastaurin 0.011 | alvocidib 0 | Tubastatin A -0.018 | [1] -0.046 | defactinib -0.02 | rucaparib 0.044 | [2] -0.014 | encorafenib -0.072 | [3] -0.016

RANGAP1 (UniProt P46060)
inactive: saracatinib -0.016 | sotrastaurin -0.101 | alvocidib -0.042 | Tubastatin A -0.002 | [1] 0.011 | defactinib -0.069 | rucaparib 0.064 | [2] -0.003 | encorafenib 0.112 | [3] -0.031

RAB43 (UniProt Q86YS6)
inactive: saracatinib 0.124 | sotrastaurin -0.048 | alvocidib 0.016 | Tubastatin A -0.076 | [1] -0.015 | defactinib -0.201 | rucaparib 0.086 | [2] -0.022 | encorafenib -0.152 | [3] -0.112

RAPGEF5, A0A590UJR0
inactive: saracatinib -0.747 | sotrastaurin 0.001 | alvocidib 0.19 | Tubastatin A 0.323 | [1] 0.009 | defactinib -0.323 | rucaparib -0.107 | [2] -0.043 | encorafenib -0.018 | [3] -0.238

RAP1B (UniProt F5GZG1)
inactive: saracatinib 0.029 | sotrastaurin 0.031 | alvocidib -0.124 | Tubastatin A -0.138 | [1] -0.003 | defactinib -0.025 | rucaparib -0.029 | [2] -0.023 | encorafenib -0.005 | [3] -0.169

RAB27B (UniProt O00194)
inactive: saracatinib 0.088 | sotrastaurin 0.012 | alvocidib -0.058 | Tubastatin A 0.039 | [1] -0.057 | defactinib -0.003 | rucaparib -0.091 | [2] -0.029 | encorafenib -0.015 | [3] 0.023

Two records drawn at random from those above:
RAB27B (UniProt O00194)
inactive: saracatinib 0.088 | sotrastaurin 0.012 | alvocidib -0.058 | Tubastatin A 0.039 | [1] -0.057 | defactinib -0.003 | rucaparib -0.091 | [2] -0.029 | encorafenib -0.015 | [3] 0.023

RAB43 (UniProt Q86YS6)
inactive: saracatinib 0.124 | sotrastaurin -0.048 | alvocidib 0.016 | Tubastatin A -0.076 | [1] -0.015 | defactinib -0.201 | rucaparib 0.086 | [2] -0.022 | encorafenib -0.152 | [3] -0.112

Next part.

RALGAPA1 isoform 6 (UniProt Q6GYQ0)
inactive: saracatinib -0.052 | sotrastaurin 0.036 | alvocidib -0.208 | Tubastatin A -0.07 | [1] 0.015 | defactinib -0.01 | rucaparib 0.174 | [2] 0.044 | encorafenib 0.165 | [3] 0.043

RAB27A (UniProt P51159)
inactive: saracatinib 0.034 | sotrastaurin 0.049 | alvocidib -0.004 | Tubastatin A -0.049 | [1] 0.027 | defactinib 0.011 | rucaparib -0.045 | [2] -0.043 | encorafenib 0.008 | [3] 0.027

RAB18 (UniProt Q9NP72)
inactive: saracatinib 0.132 | sotrastaurin 0.045 | alvocidib -0.014 | Tubastatin A -0.078 | [1] -0.002 | defactinib 0.033 | rucaparib -0.034 | [2] 0.013 | encorafenib -0.012 | [3] 0.012

RAD51AP1 (UniProt Q96B01)
inactive: saracatinib 0.014 | sotrastaurin 0.035 | alvocidib -0.012 | Tubastatin A 0.139 | [1] -0.024 | defactinib -0.006 | rucaparib -0.065 | [2] -0.041 | encorafenib -0.109 | [3] 0.036

RAP2A (UniProt P10114)
inactive: saracatinib -0.049 | sotrastaurin 0.053 | alvocidib 0.019 | Tubastatin A 0.032 | [1] -0.083 | defactinib -0.063 | rucaparib -0.021 | [2] 0.064 | encorafenib -0.02 | [3] 0.009
